# Library screen at single concentrations

Each number is a percent effect as filed. The record does not define 0% and 100%; most values in the screen are far below 50% and negative numbers occur (in some assays of this library far below -100). This is an unselected part of the compounds tested.

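Assay of Toxoplasma gondii numbers, read through their beta-galactosidase reporter with a colour substrate. Concentration: 10 µM. Higher reads as fewer parasites (inferred from which compounds were picked for retests). Size under these conditions: about 67,000 compounds, about 260 of them at 50% or above in at least one test.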

compound,Percent Effect
O=C1CC2(CCN(C(=O)c3ccc4c(c3)CCCO4)C2)C(=O)N1 (stereo not given),5.82
NC(=O)CN(CC(=O)NCc1cccc(Cl)c1)C1CCCC1,-20.23
N#Cc1cccc(N2CC3(CCN(C(=O)NC4CC4)C3)CC2=O)c1 (stereo not given),5.172
C1=C(c2c[nH]c3ncccc23)CCN(Cc2nnc(C3CC3)o2)C1,15.59
Cc1nn(C)c2nc(-c3ccccn3)nc(NC[C@@H]3CCCO3)c12,4.281
CN(CCO)Cc1nnc(C2CCN(C(=O)C(C)(C)C)CC2)n1C,-1.982
Cc1nc[nH]c1CN1CCCC(CNC(=O)c2ccc(N)nc2)C1 (stereo not given),5.357
CCn1c(C2CCCN(Cc3cc(C)cc(C)c3)C2)nn(C)c1=O (stereo not given),-0.2899
CO[C@H]1CN(S(=O)(=O)c2ccc(C)cc2)C[C@@]12CCCO2,10.01
O=C1CC(CNc2cncc(Cl)n2)c2ccccc2N1 (stereo not given),14.21
Cc1noc(C)c1CC(=O)NCC(CC(C)C)N1CCOCC1 (stereo not given),-13.22
CN1CC(c2cc(O)nc(NCc3cccc(F)c3)n2)CC1=O (stereo not given),-3.575
CN1CCOC(C(=O)N2CCC3(CCCCC3)C2)C1 (stereo not given),0.437
FC(F)(F)c1cccnc1N1CCC(OC2CCOCC2)CC1,8.872
Cc1cc(C(N)=O)ccc1NC(=O)c1nc(N2CCCCC2)ncc1Cl,14.38
CCc1nc2n(n1)CC(NCc1cnc(-c3ccccc3)nc1)CC2 (stereo not given),27.92
O=C(c1cc2c(F)cccc2[nH]1)N1CCC(Nc2cccnn2)CC1,6.451
Cc1oc(C)c(C(=O)Nc2ccccn2)c1C,-1.308
O=C(O)C(F)(F)F.[H][C@@]12CCN(Cc3c(C)noc3C)C[C@]1(C(=O)N1CCCO1)CCO2,-8.737
CC(=O)N1CCCN(C(=O)c2ccc(=O)n(C)c2)c2ccccc21,-19.37
CCN(CC)CC(=O)N1CCN(c2nc(C)cc(OC)n2)CC1,0.2034
COc1ncc(C(=O)N(Cc2cnn(C)c2)C(C)C)cn1,6.258
Cn1cccc1C(=O)NC(C)(C(N)=O)c1cccc(Cl)c1 (stereo not given),3.158
COc1cc(C)ccc1OCC(=O)NS(=O)(=O)c1cc(F)ccc1F,-2.908
N#Cc1cc(Cl)ccc1N1CCN(C(=O)C2CCC2)CC1,-42.63
CCc1ccc(CN2CCC3(CC2)C(=O)N(C)CCN3CC)cc1,-2.598
Cc1ccc(OCCN(C)Cc2nc3c(cnn3C)c(=O)[nH]2)cc1,-12.81
O=C1CCCN1CCCN1CCCC(Cn2cncn2)C1 (stereo not given),-0.7585
CS(=O)(=O)c1ccc(-c2c[nH]c([C@@H]3COCCN3)n2)cc1,11.53
Cl.N#Cc1ccc(CNCC2(c3ccccc3)CCOCC2)cc1,10.1
CN(Cc1ccsc1)C(=O)CN1CCCC(Cn2cncn2)C1 (stereo not given),-38.78
Cc1ccc([C@@H]2CN(C(=O)CCc3cc(Cl)no3)C[C@H]2N(C)C)cc1,-0.8409
Oc1cc(CN2CCCCC2c2cccnc2)nc2c(F)cccc12 (stereo not given),5.775
Cc1nc(CN2CCN(c3cncc(Cl)n3)CC2)no1,3.332
CN(C)Cc1csc(-c2nccn2CCc2cccnc2)c1,-8.706
O=C(NCCOc1ccc2c(c1)OCO2)N1CCCC(CO)C1 (stereo not given),-6.248
CN(C)[C@@H]1CN(Cc2ccccc2O)C[C@H]1c1cn(C)c2ccccc12.Cl,24.81
O=C(c1cnc(-c2cnccn2)s1)N1CCCC(n2cccn2)C1 (stereo not given),-2.537
Cc1cnc(C)c(N2CCC(c3nnc(CN(C)C)n3C3CC3)CC2)n1,24.12
[H][C@@]12CC(=O)N(c3cnn(C)c3)[C@@]1([H])CCN2C(=O)c1ccco1,-25.12
O=C(c1cccnc1)N1CCc2c(nc(N3CCCC3)[nH]c2=O)C1,2.043
Cc1nc(CN2CCOC3(CCCC3)C2)oc1C,13.74
CC(C)N(CC(N)=O)CC(=O)NCCc1c(F)cccc1F,6.582
Cc1nc2n(n1)CC(NCc1nc(-c3ccccn3)no1)CC2 (stereo not given),-2.257
CC(=O)N1CCCC(Cc2cncc(Br)c2)CC1 (stereo not given),26.59
CC(C)NC(=O)NC[C@H]1OC[C@@H](NCc2ccncc2)[C@@H]1O,1.355
Cc1cc(C)c(CNC(=O)NCCOc2ccc3c(c2)CCC3)c(=O)[nH]1,-3.811
CCO[C@H]1CO[C@@]2(CCN(Cc3ccc4c(c3)OCO4)C2)C1.O=C(O)C(F)(F)F,21.56
CCOCC1CCN(C(=O)C(c2c(F)cccc2F)N(C)C)CC1 (stereo not given),6.376
Cc1cc(C)nc(N(C)CCN(C)C2CCCC2)n1,-5.125
CCOc1ccc(C(=O)N2Cc3cnc(CC(C)C)nc3C2)o1,3.144
CN1CCC(N(C)CCC(=O)N2CCC(Oc3ccc(Cl)cc3)CC2)C1 (stereo not given),2.163
COCCN1CCC(c2nc3ccc(-c4ccccc4)cn3n2)CC1.O=C(O)C(F)(F)F,-30.4
CN(Cc1cnccn1)CC1CCOc2ccccc2C1 (stereo not given),7.356
Cc1c(CC(=O)N2CCN(C(C)C)CC2)nnn1-c1ccccc1,41.02
COCCC1COC2(CCN(C(=O)C3CCC3)CC2)C1 (stereo not given),1.092
CSCCCNC(=O)Nc1cccc(-c2nccn2C)c1,2.792
[H][C@@]12COC[C@@H](C(=O)NC)[C@]1([H])CN(C(=O)c1ccc(C)c(C)c1)C2,-20.16
CC(=O)N1CCC2(CC1)CN(C(=O)c1ccc3c(c1)OCO3)C2,-24.84
Cc1noc(CN(C)CC(c2cccs2)N2CCOCC2)n1 (stereo not given),-13.31
COc1ccccc1C(C)(C)NC(=O)c1ccc(F)c(NC(C)=O)c1,-11.1
O=C(C1CCCOC1)N1CCCc2ccccc21 (stereo not given),1.154
Cc1n[nH]cc1CNC(C)c1cccc(N2CCCC2=O)c1.Cl (stereo not given),-5.841
COCc1noc(-c2nn(-c3ccc(F)c(F)c3)c3c2CCC3)n1,1.157
O=C(NCCC1CCCO1)c1ccccc1N1CCOCC1 (stereo not given),-0.2685
c1ccc(OCc2noc(CN3CCN(C4CCCC4)CC3)n2)cc1,7.506
CC1c2ncc(COc3cccnc3)n2CCN1C(=O)C1=CCCC1.O=C(O)C(F)(F)F (stereo not given),10.52
Cc1[nH]ncc1C(=O)N1CCN(CC(O)C(C)(C)C)CC1 (stereo not given),0.07519
CC(C)c1nn(CC(=O)N2CCCC2)c(=O)c2c1cnn2C(C)(C)C,-2.76
Cc1cnn(CC2CN(Cc3cccnc3)CCO2)c1 (stereo not given),5.37
O=c1[nH]ccn1CCCN1CC=C(c2cnn(-c3ccccc3)c2)CC1,13.73
O=C(NCCc1nc2ccccc2s1)c1coc(CN2CCOCC2)c1,-27.26
[H][C@]12CC[C@]([H])(CN(C(=O)c3ccccn3)C1)N(C(=O)CCN1CCCC1)C2,-8.678
COc1ccc(CC(=O)N2Cc3nccn3CC(CN(C)C)C2)cc1.O=C(O)C(F)(F)F (stereo not given),26.55
O=c1c(CN2CCCCC2)coc2ccc(Cl)cc12,17.9
COCCC(=O)N1CCC(c2cncc(Oc3cccnc3)n2)CC1,-19.28
Cc1cccc(N2CCN(C(=O)c3c(C)nn(C)c3C)CC2)c1C,9.663
Cc1sc2c(C3CCCN(S(C)(=O)=O)C3)nc(C)n2c1C (stereo not given),-5.116
O=C(CCn1cc(Cl)cn1)Nc1ncccn1,-0.1763
COc1cccc(C2CCN2C(=O)c2cc(C(C)C)on2)c1 (stereo not given),-1.953
CCS(=O)(=O)N1CCOC2(CCCN(c3cnccn3)C2)C1.O=C(O)C(F)(F)F (stereo not given),9.07

Repeated from the top, 7 entries:

compound,Percent Effect
O=C1CC2(CCN(C(=O)c3ccc4c(c3)CCCO4)C2)C(=O)N1 (stereo not given),5.82
NC(=O)CN(CC(=O)NCc1cccc(Cl)c1)C1CCCC1,-20.23
N#Cc1cccc(N2CC3(CCN(C(=O)NC4CC4)C3)CC2=O)c1 (stereo not given),5.172
C1=C(c2c[nH]c3ncccc23)CCN(Cc2nnc(C3CC3)o2)C1,15.59
Cc1nn(C)c2nc(-c3ccccn3)nc(NC[C@@H]3CCCO3)c12,4.281
CN(CCO)Cc1nnc(C2CCN(C(=O)C(C)(C)C)CC2)n1C,-1.982
Cc1nc[nH]c1CN1CCCC(CNC(=O)c2ccc(N)nc2)C1 (stereo not given),5.357

Data taken from ChEMBL document CHEMBL3988442, “University of Dundee, Small-Polar-MMV Screening Library” (2021).